Earlier results as cited in patent publication US8329663B2, “Compositions and methods for the treatment of chronic infections” (priority 2008, dated 2012).
At least one compound was matched to its structure with a doubt left. Some compounds share one wording; it may come from a single statement.

System: C. pneumoniae

Question: Which “in vitro susceptibility of C. pneumoniae” value does the source give for `CN(C)[C@@H]1C(O)=C(C(N)=O)C(=O)[C@@]2(O)C(O)=C3C(=O)c4c(O)cccc4[C@@](C)(O)[C@H]3C[C@@H]12` [Tetracycline] here?
Answer: susceptible in vitro

Question: With `CC1COc2c(N3CCN(C)CC3)c(F)cc3c(=O)c(C(=O)O)cn1c23` (stereo not drawn) [ofloxacin] as the compound, how does the “in vitro susceptibility of C. pneumoniae” value read?
Answer: susceptible in vitro

Question: Which “in vitro susceptibility of C. pneumoniae” value does the source give for `C[C@H]1COc2c(N3CCN(C)CC3)c(F)cc3c(=O)c(C(=O)O)cn1c23` [levofloxacin] here?
Answer: susceptible in vitro
